Reference: PMC10366545, “Phosphoregulation of DNA repair via the Rad51 auxiliary factor Swi5–Sfr1” (The Journal of Biological Chemistry, 2023)

Columns and labels:
[1] = system: S5S1-7A (Rad51 interaction mutant) (Schizosaccharomyces pombe); test: EMSA; details: 3.5 mM Mg2+, unlike PM, no significant shift implied, EMSA: 25 mM Hepes-KOH pH 7.5, 100 mM KCl, 3.5 mM MgCl2, 0.5 mM TCEP, 5% glycerol, 20 nM DNA, 37 C 15 min, 0.8% agarose in TAE at 4 C, recombinant protein, protein details: N-terminal His6 on Sfr1
[2] = system: Rad51 + S5S1-7A (Rad51 interaction mutant); test: negative-stain EM; details: 2 mM ATP, 5 mM Mg2+, partial stabilization; recombinant protein; protein details: N-terminal His6 on Sfr1; single-stranded DNA
[3] = target: T1, Rad51 (Schizosaccharomyces pombe) (UniProt P36601); test: streptavidin pull-down; details: 2 mM ATP, 5 mM Mg2+, 0.312 uM Fbh1-Skp1 (filament disruption), pull-down: 25 mM Tris-Cl pH 7.5, 100 mM NaCl, 5 mM MgCl2, 37 C, recombinant protein, residues 1-365, label: 5' biotin, single-stranded DNA
T1 sequence (looked up): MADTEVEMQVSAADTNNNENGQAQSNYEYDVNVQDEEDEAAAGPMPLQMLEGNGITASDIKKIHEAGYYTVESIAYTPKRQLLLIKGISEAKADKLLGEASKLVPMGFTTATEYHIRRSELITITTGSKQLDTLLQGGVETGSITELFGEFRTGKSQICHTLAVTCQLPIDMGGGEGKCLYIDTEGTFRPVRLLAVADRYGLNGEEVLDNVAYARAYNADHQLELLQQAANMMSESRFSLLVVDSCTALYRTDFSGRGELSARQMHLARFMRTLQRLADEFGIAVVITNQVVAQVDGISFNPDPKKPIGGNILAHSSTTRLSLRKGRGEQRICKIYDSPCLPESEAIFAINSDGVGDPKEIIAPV

[4] = system: Rad51 + S5S1-7A (Rad51 interaction mutant); test: streptavidin pull-down; details: ATP, Mg2+, Fbh1-Skp1, impaired stabilization; pull-down: 25 mM Tris-Cl pH 7.5, 100 mM NaCl, 2 mM ATP, 5 mM MgCl2, 37 C; recombinant protein; protein details: N-terminal His6 on Sfr1; label: 5' biotin; single-stranded DNA

Sequence: TTGATAAGAGGTCATTTTTGCGGATGGCTTAGAGCTTAATTGCTGAATCTGGTGCTGTAGCTCAACATGTTTTAAATATG (double strand) [BA663/BA664 80-bp dsDNA]
- binding result ([1]; label: 3' Cy5 on BA663): binds more weakly

Sequence: TTGATAAGAGGTCATTTTTGCGGATGGCTTAGAGCTTAATTGCTGAATCTGGTGCTGTAGCTCAACATGTTTTAAATATG [BA663 80-mer ssDNA]
- binding result ([1]; label: 3' Cy5, single-stranded DNA): binds more weakly

Sequence: TTCAATATCTGGTTGAACGGCGTCGCGTCGTAACCCAGCTTGGTAAGTTGGATTAAGCACTCCGTGGACAGATTTGTCATTGTGAGCATTTTCATCCCGAAGTTGCGGCTCATTCT [BA494 116-mer ssDNA]
- binding result [2]: binds more weakly

Sequence: ATAAGGCCACGTATTTTGCAAGCTATTTAACTGGCGGCGATTGCGTACCCGACGACCAAAATTAGGGTCAACGCTACCTGTAGGAAGTGTCCGCATAAAG [BA655 100-mer ssDNA]
- binding result [3]: binds more weakly
- binding result [4]: binds more weakly

The exact form of at least one protein or probe is not confirmed. A weaker result is weaker than the reference pair of the same experiment. For some assays here: At least one verdict was read from the data and is not stated in words by the source. For some assays here: Tags and fusion partners may be left off the protein sequences shown.
